Test results as given in the RNAGym collection of RNA variant scans (doi:10.1126/science.aae0568).
Variants at the background level are over-represented here.

B1: tRNA (parent)
chain: GUUCCGUUGGCGUAAUGGUAACGCGUCUCCCUCCUAAGGAGAAGACUGCGGGUUCGAGUCCCGUACGGAACG

Variants of: B1
Assay: yeast fitness relative to wild type (ratio to wild type); higher = fitter; tRNA-Arg(CCU), competitive growth, 37 C, YPD
Summary of the method: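 A pool of Saccharomyces cerevisiae strains, each with a tRNA-Arg(CCU) gene variant at the native genomic locus, was competed in YPD at 37°C for 24 hours across six parallel replicates. The variants had been chemically synthesised at a 3% per-site mutation rate over 69 sites, and gene amplicons before and after competition were read by 100-nucleotide paired-end sequencing. Darwinian fitness relative to wild type rested on changes in genotype frequencies. Genotypes required ≥ 100 starting reads, and estimates < 0.5 were set to 0.5.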

Question: With U8A A20C A21G C27G C60G as the variant, how does the yeast fitness read?
Answer: The yeast fitness was no more than 0.5.

Question: Which yeast fitness does the source give for U8A A20C U35A G38C here?
Answer: The yeast fitness was no more than 0.5.

Question: For U8A A40G C49G U54A C55A A65G A70U, which yeast fitness is on record?
Answer: The yeast fitness was no more than 0.5.

Question: Which yeast fitness does the source give for U8A A40G C55G here?
Answer: The yeast fitness was no more than 0.5.

Question: Which yeast fitness does the source give for U8A C11U G25A C31A C33A A40U A69U here?
Answer: The yeast fitness was no more than 0.5.

Question: For U8A C22U G48C G68A, which yeast fitness is on record?
Answer: Its yeast fitness is no more than 0.5.

Question: For U8A C29U C33U A69C, which yeast fitness is on record?
Answer: Its yeast fitness is no more than 0.5.

Question: With U8A C30A A37G C66U A70C as the variant, how does the yeast fitness read?
Answer: The yeast fitness was no more than 0.5.

Question: For U8A C31G G68A, which yeast fitness is on record?
Answer: Its yeast fitness is no more than 0.5.

Question: For U8A C34U C49U C60U, which yeast fitness is on record?
Answer: The yeast fitness was no more than 0.5.

Question: For U8A G18A C27A A37C G56A, which yeast fitness is on record?
Answer: The yeast fitness was no more than 0.5.

Question: With U8A G18C C27U U32C C66G A70U as the variant, how does the yeast fitness read?
Answer: The yeast fitness was no more than 0.5.

Question: Which yeast fitness does the source give for U8A G38A G58C C66U here?
Answer: Its yeast fitness is no more than 0.5.

Question: With U8A G58A as the variant, how does the yeast fitness read?
Answer: Its yeast fitness is 0.771.

Question: Which yeast fitness does the source give for U8A U13A A14C G56C here?
Answer: The yeast fitness was no more than 0.5.

Question: For U8A U16C C22U C24U C29U C60U, which yeast fitness is on record?
Answer: Its yeast fitness is no more than 0.5.

Question: For U8A U19A G50C, which yeast fitness is on record?
Answer: The yeast fitness was no more than 0.5.

Question: With U8A U19G C24G U32A C49U as the variant, how does the yeast fitness read?
Answer: The yeast fitness was no more than 0.5.

Question: Which yeast fitness does the source give for U8A U26A A43C here?
Answer: The yeast fitness was no more than 0.5.

Question: For U8C A14G A42C A43U U59A C62G A65U, which yeast fitness is on record?
Answer: The yeast fitness was no more than 0.5.

Question: Which yeast fitness does the source give for U8C A14G G68A here?
Answer: Its yeast fitness is 0.534.

Question: With U8C A14G U16G G25A G68A as the variant, how does the yeast fitness read?
Answer: The yeast fitness was no more than 0.5.

Question: Which yeast fitness does the source give for U8C A15C U32C A69C here?
Answer: The yeast fitness was no more than 0.5.

Question: With U8C A15U A57U A69U as the variant, how does the yeast fitness read?
Answer: The yeast fitness was no more than 0.5.

Question: With U8C A21U C24A as the variant, how does the yeast fitness read?
Answer: The yeast fitness was no more than 0.5.

Question: For U8C A65U A69C, which yeast fitness is on record?
Answer: Its yeast fitness is 0.615.

Question: Which yeast fitness does the source give for U8C C11A C61U here?
Answer: The yeast fitness was no more than 0.5.

Question: Which yeast fitness does the source give for U8C C11G A15U A20G A21G here?
Answer: The yeast fitness was no more than 0.5.

Question: For U8C C11G U13C A69C, which yeast fitness is on record?
Answer: Its yeast fitness is no more than 0.5.

Question: With U8C C22G U47C U53G as the variant, how does the yeast fitness read?
Answer: The yeast fitness was no more than 0.5.

Question: With U8C C22U C27G A37G A42C as the variant, how does the yeast fitness read?
Answer: The yeast fitness was no more than 0.5.

Question: Which yeast fitness does the source give for U8C C22U U32C C46G U53G G68C here?
Answer: Its yeast fitness is no more than 0.5.

Question: For U8C C24G G38C U53G, which yeast fitness is on record?
Answer: The yeast fitness was 0.635.

Question: For U8C C27G A42G, which yeast fitness is on record?
Answer: Its yeast fitness is no more than 0.5.

Question: With U8C C29A U54A as the variant, how does the yeast fitness read?
Answer: Its yeast fitness is no more than 0.5.

Question: With U8C C30G C31G G63A as the variant, how does the yeast fitness read?
Answer: The yeast fitness was no more than 0.5.

Question: With U8C C34G A57G A65G C66U as the variant, how does the yeast fitness read?
Answer: Its yeast fitness is no more than 0.5.

Question: Which yeast fitness does the source give for U8C G9A U13G C62U here?
Answer: Its yeast fitness is no more than 0.5.

Question: With U8C G23C C33G C49U as the variant, how does the yeast fitness read?
Answer: Its yeast fitness is no more than 0.5.

Question: For U8C G25U C29A G51C, which yeast fitness is on record?
Answer: Its yeast fitness is no more than 0.5.

Question: With U8C G38C C55U as the variant, how does the yeast fitness read?
Answer: The yeast fitness was no more than 0.5.

Question: Which yeast fitness does the source give for U8C G41A A65G here?
Answer: Its yeast fitness is 0.63.

Question: With U8C G50A A70U as the variant, how does the yeast fitness read?
Answer: Its yeast fitness is 0.736.

Question: With U8C U13G C22U C49U as the variant, how does the yeast fitness read?
Answer: Its yeast fitness is no more than 0.5.

Question: Which yeast fitness does the source give for U8C U28A C31G A42U C49G G67U here?
Answer: Its yeast fitness is no more than 0.5.

Question: Which yeast fitness does the source give for U8G A15C U28A G52C here?
Answer: The yeast fitness was no more than 0.5.

Question: For U8G A15U G41A G50C U53C C60G C62U, which yeast fitness is on record?
Answer: The yeast fitness was no more than 0.5.

Question: With U8G A20G A36U A45U C46A G68A as the variant, how does the yeast fitness read?
Answer: The yeast fitness was no more than 0.5.

Question: With U8G A20G A37G A43G as the variant, how does the yeast fitness read?
Answer: The yeast fitness was no more than 0.5.

Question: For U8G A21C U54A A57G, which yeast fitness is on record?
Answer: Its yeast fitness is no more than 0.5.

Question: Which yeast fitness does the source give for U8G A21U G68A here?
Answer: The yeast fitness was no more than 0.5.

Question: With U8G A43C C66G A69U as the variant, how does the yeast fitness read?
Answer: The yeast fitness was no more than 0.5.

Question: For U8G C11G U32A G52C A65U G67C, which yeast fitness is on record?
Answer: Its yeast fitness is no more than 0.5.

Question: For U8G C22U A37C C55G G68C, which yeast fitness is on record?
Answer: The yeast fitness was no more than 0.5.

Question: For U8G C22U C24G A43U, which yeast fitness is on record?
Answer: Its yeast fitness is no more than 0.5.

Question: Which yeast fitness does the source give for U8G C34A G39A A40G here?
Answer: Its yeast fitness is no more than 0.5.

Question: Which yeast fitness does the source give for U8G G17A A20C C22G C29G C34G G68A here?
Answer: Its yeast fitness is 0.606.

Question: Which yeast fitness does the source give for U8G G18C here?
Answer: Its yeast fitness is no more than 0.5.

Question: For U8G U16A A36C, which yeast fitness is on record?
Answer: Its yeast fitness is no more than 0.5.

Question: For U8G U16A A36C C66U, which yeast fitness is on record?
Answer: The yeast fitness was no more than 0.5.

Question: Which yeast fitness does the source give for G9A A14G G23A G41C C61U A69C here?
Answer: Its yeast fitness is no more than 0.5.

Question: Which yeast fitness does the source give for G9A A36U C55G G58C here?
Answer: Its yeast fitness is no more than 0.5.

Question: Which yeast fitness does the source give for G9A A36U G39A A69U here?
Answer: Its yeast fitness is no more than 0.5.

Question: With G9A C11A A14C U16A C31A as the variant, how does the yeast fitness read?
Answer: Its yeast fitness is no more than 0.5.

Question: With G9A C11A C30G C46U G67A as the variant, how does the yeast fitness read?
Answer: The yeast fitness was no more than 0.5.

Question: Which yeast fitness does the source give for G9A C11G C24G G41A A69U here?
Answer: The yeast fitness was no more than 0.5.

Question: With G9A C11G C24G U32A C46G A69U as the variant, how does the yeast fitness read?
Answer: The yeast fitness was no more than 0.5.

Question: For G9A C11G C33U A69U, which yeast fitness is on record?
Answer: Its yeast fitness is no more than 0.5.

Question: With G9A C11G U19C G56A C60G G67A as the variant, how does the yeast fitness read?
Answer: The yeast fitness was no more than 0.5.

Question: With G9A C11U C29A A65C as the variant, how does the yeast fitness read?
Answer: Its yeast fitness is no more than 0.5.

Question: For G9A C11U G48A, which yeast fitness is on record?
Answer: The yeast fitness was 0.715.

Question: With G9A C22A U53A A57G G63A as the variant, how does the yeast fitness read?
Answer: Its yeast fitness is no more than 0.5.

Question: Which yeast fitness does the source give for G9A C22G U35C here?
Answer: Its yeast fitness is no more than 0.5.

Question: With G9A C27G C31U A69C as the variant, how does the yeast fitness read?
Answer: Its yeast fitness is no more than 0.5.

Question: With G9A C29G C66U A70C as the variant, how does the yeast fitness read?
Answer: The yeast fitness was no more than 0.5.

Question: Which yeast fitness does the source give for G9A C31U C46G C49U C66G here?
Answer: Its yeast fitness is no more than 0.5.

Question: Which yeast fitness does the source give for G9A C60G C61A G63A here?
Answer: The yeast fitness was no more than 0.5.

Question: Which yeast fitness does the source give for G9A G17A A21G C34U G44C A70U here?
Answer: The yeast fitness was no more than 0.5.

Question: With G9A G17A A43G A45G C62G as the variant, how does the yeast fitness read?
Answer: The yeast fitness was no more than 0.5.

Question: For G9A G25U C29A G56C, which yeast fitness is on record?
Answer: Its yeast fitness is no more than 0.5.

Question: For G9A G39C A42C C49A, which yeast fitness is on record?
Answer: The yeast fitness was no more than 0.5.

Question: For G9A G52A, which yeast fitness is on record?
Answer: The yeast fitness was 0.687.

Question: With G9A U13A C33U G50A as the variant, how does the yeast fitness read?
Answer: The yeast fitness was no more than 0.5.

Question: With G9A U13C C29G C55A as the variant, how does the yeast fitness read?
Answer: Its yeast fitness is no more than 0.5.
